Measured values: PubChem BioAssay AID2551 (National Center for Advancing Translational Sciences (NCATS), 2010)
Several values for one entry are separate records, joined by “and”; a condition that tells them apart may be missing. Equal values may be shown once. About 17,000 (5.5%) of roughly 310,000 compounds were called active. The shares of active, inactive and inconclusive entries below differ from those in the screen. The call rests on the fitted dose curve; in most records, active means well fitted inhibition curve with a large enough effect; inconclusive means small, poorly fitted or top-dose-only effect, or effect the other way; inactive means no such curve, though single readings can be large or run the other way. A potency beside an inconclusive call is a rough fit, not a confirmed value. The source holds several records for some structures; these can differ, active in one and inactive in another.

Sequences of proteins named here, by UniProt entry; tags and fusion partners are left off. A change or cut given only in a name is not applied to a line headed by its entry.
UniProt P51450: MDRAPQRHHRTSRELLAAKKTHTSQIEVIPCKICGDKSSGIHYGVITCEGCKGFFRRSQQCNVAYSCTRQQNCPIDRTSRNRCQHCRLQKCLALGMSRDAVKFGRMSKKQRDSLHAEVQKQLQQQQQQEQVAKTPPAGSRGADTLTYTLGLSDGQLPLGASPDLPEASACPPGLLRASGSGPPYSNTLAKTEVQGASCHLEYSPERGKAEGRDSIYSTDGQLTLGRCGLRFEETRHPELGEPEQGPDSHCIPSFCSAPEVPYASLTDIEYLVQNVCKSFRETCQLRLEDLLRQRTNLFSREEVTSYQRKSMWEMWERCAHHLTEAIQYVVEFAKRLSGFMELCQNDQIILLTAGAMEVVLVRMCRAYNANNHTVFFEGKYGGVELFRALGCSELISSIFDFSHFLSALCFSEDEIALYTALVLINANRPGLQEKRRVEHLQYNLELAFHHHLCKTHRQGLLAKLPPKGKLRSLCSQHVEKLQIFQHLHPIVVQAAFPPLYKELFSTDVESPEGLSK

target: Nuclear receptor ROR-gamma (Mus musculus) (UniProt P51450); assay: qHTS for inhibitors of ROR gamma transcriptional activity; settings: Drosophila S2 Gal4-RORgamma UAS-luciferase reporter, 20 h; series mostly up to 53.6 µM; further: nearly all actives have a fitted effect of over 60% in size
In short: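 Stably transfected Drosophila Schneider cells are the test system, with ROR gamma fused to Gal4 and luciferase under UAS control; luminescence is read after 20 hr of 700 uM copper sulfate induction at ambient temperature.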
Potency means the concentration at half of the fitted maximal effect.

| Structure (SMILES) | Potency |
| --- | --- |
| CC1Cc2cc(/C(O)=C3/C(=O)C(=O)N(CCCN4CCOCC4)C3c3ccc(C(C)C)cc3)ccc2O1 (centres undefined) | inactive |
| Oc1c(Cl)cc(Cl)cc1C=Nc1ccc(Br)cc1 | inconclusive: 12.6 µM [inhibitor, single point] |
| COc1ccc(-c2cc(C3CCNCC3)[nH]n2)cc1 | inactive |
| Cn1c(=O)[nH]c(=O)c2c1nc(Br)n2CCOc1ccccc1 | inactive |
| Cn1c(CSCCOc2ccccc2)n[nH]c1=S | active: 1 µM |
| COc1cc(/C=N/NC(=O)c2ccc3c(c2)OCO3)ccc1O | active: 8.91 µM |
| N#C/C(=C/c1ccc(Sc2nc3ccccc3[nH]2)o1)c1cccc(F)c1 | inconclusive: 35.5 µM [inhibitor, single point] |
| CC1CCCC(NC(=S)Nc2ccc(SC(F)F)cc2)C1C (centres undefined) | active: 0.501 µM |
| C[C@H](NC(=O)c1nc[nH]c1C(=O)N1CCc2ccccc2C1)C(=O)OCc1ccccc1 | inconclusive: 22.4 µM [inhibitor, single point] |
| O=C(c1ccc(F)cc1)C1CCN(CCn2c(=S)[nH]c3ccccc3c2=O)CC1 | inactive and active: 7.94 µM |
| COc1ccc2c(c1OC)C(=O)OC2Nc1nc(-c2cccc([N+](=O)[O-])c2)cs1 (centres undefined) | inconclusive: 20 µM [activator, single point] |
| COc1ccc(C(=S)N2CCOCC2)cc1OC(=O)c1cccc([N+](=O)[O-])c1 | inactive |
| COc1ccc(CC(=O)Nc2ccc(-c3cn4ccccc4n3)cc2)cc1 | inactive |
| O=C(N/N=C/c1cc([N+](=O)[O-])ccc1O)c1cccc2cc[nH]c12 | active: 1.41 µM |
| O=C(COc1ccc(Cl)cc1Cl)NC(=S)Nc1ccc(CN2CCOCC2)cc1 | active: 15.8 µM |
| CC(C)c1ccc(NC(=O)CSc2nc3ncccc3[nH]2)cc1 | inconclusive: 14.1 µM [activator, single point] |
| CCN(CC)CCOC(c1ccccc1)c1ccc(C)cc1 (centres undefined) | inactive |
| O=C(O)CCCn1cc(NC(=O)c2sc3ccccc3c2Cl)cn1 | active: 14.1 µM |
| O=C(NCCNS(=O)(=O)c1cccc(C(F)(F)F)c1)c1cc(OCC(F)(F)F)ccc1OCC(F)(F)F | inactive |
| COc1cc(CNCc2ccccn2)ccc1OCc1ccccc1Cl | active: 14.1 µM |
| Cc1cc(C(F)(F)F)nn1C(=O)c1cccnc1Cl | inactive |
| CCOC(=O)c1[nH]c2ccc(OC)cc2c1NC(=O)c1ccc(OC)c(OC)c1 | inactive |
| S=C(NCc1cccs1)Nc1cccc(Cl)c1Cl | active: 10 µM |
| O=C(Nc1cccc(NC(=O)c2ccco2)c1)c1ccc2c(c1)OCO2 | inconclusive: 20 µM [activator, single point] |
| COc1ccc(C(=O)N/N=c2\oc3ccccc3cc2C(=O)NCc2ccccc2)cc1 | inconclusive: 35.5 µM [inhibitor, single point] |

| Structure (SMILES) | Potency |
| --- | --- |
| COc1ccc(CCCO[C@@H](Cn2ccnc2)c2ccc(OC)cc2)cc1 | active: 8.91 µM |
| CC(=O)c1ccc(N2CCN(C(=S)Nc3cccc(F)c3)CC2)cc1 | active: 14.1 µM |
| Cc1ccc(-c2nc(=S)c3c(n2Cc2ccco2)CC(C)(C)OC3)cc1 | active: 2.82 µM |
| CCn1c(C)c(C)c2cc(C(=O)N3CCc4ccccc4C3)ccc21 | inconclusive: 35.5 µM [inhibitor, single point] |
| CCCc1cc(C(=O)Cc2ccc(C(=O)OCC)o2)c(O)cc1O | inactive |
| O=C(/C(=C(\[O-])c1ccccc1)[n+]1ccc2ccccc2c1)c1ccc(Cl)cc1 | inconclusive: 12.6 µM [activator, partial curve] |
| COc1ccc(-c2nc(CN3CCCCC3CCc3ccccn3)c(C)o2)cc1 (centres undefined) | inactive |
| CNC(=S)N(Cc1ccc(OC)cc1)C1CC(=O)N(c2ccc(OC)cc2)C1=O (centres undefined) | inconclusive: 6.31 µM [activator, partial curve] |
| CCn1c(Cc2ccc(OC)cc2)nnc1SCC(=O)Nc1cccc(C(=O)OC)c1 | inconclusive: 15.8 µM [activator, partial curve, poor fit] |
| NC(=O)N/N=C/c1cn(-c2ccccc2)nc1-c1cccnc1 | inactive |
| COc1ccc(S(=O)(=O)N2CCN(CC(=O)Nc3ccc(C)c(F)c3)CC2)cc1 | inconclusive: 35.5 µM [activator, single point] |
| COc1cc(C/C=C\c2ccccc2)c(OC)cc1O | inconclusive: 12.6 µM [inhibitor, single point] |
| Cc1ccc(S(=O)(=O)N2CCN(C(=O)CN3CCCC3)C2)cc1 | inconclusive: 0.447 µM [inhibitor, full curve, poor fit] |
| COc1ccc(-c2nc3cnccn3c2Nc2ccc3c(c2)OCO3)cc1 | inactive |
| CC(=O)OCC(=O)N1N=C(c2ccc3ccccc3c2)CC1c1ccccc1 (centres undefined) | inconclusive: 12.6 µM [inhibitor, single point] |
| COC(=O)C1=C(COc2ccccc2)NC(=O)NC1c1ccc(Br)cc1 (centres undefined) | inconclusive: 25.1 µM [activator, single point] |
| Cc1[nH]c2ccccc2c1CCNC(=O)c1ccc2c(c1[N+](=O)[O-])C(=O)c1ccccc1C2=O | active: 10 µM |
| Cc1ccccc1Nc1nc(N)nc(COC(=O)CC2CC3CCC2C3)n1 (centres undefined) | inconclusive: 6.31 µM [activator, full curve] |
| C/C(Cl)=C/CSc1nc2c(c(=O)[nH]c(=O)n2C)n1C(C)C | inactive |
| CCCC(=O)c1ccc(N2CCCC2)c(F)c1 | inconclusive: 11.2 µM [activator, partial curve] |
| COc1cccc(-c2nnc(NC(=O)c3cccc(F)c3)o2)c1 | active: 0.316 µM |
| Cc1ccnc(SCC(=O)c2ccc(Br)s2)n1 | inconclusive: 12.6 µM [activator, single point] |
| CCN(CC)S(=O)(=O)c1cccc(NC(=O)/C=C/c2cccc([N+](=O)[O-])c2)c1 | inconclusive: 25.1 µM [activator, single point] |
| CCc1ccc(/C=N/NC(=O)c2nnn(-c3nonc3N)c2CN2CCc3ccccc32)cc1 | inconclusive: 17.8 µM [inhibitor, single point] |

Exported with each value named: entries from further up.
S=C(NCc1cccs1)Nc1cccc(Cl)c1Cl
  Potency: active: 10 µM
O=C(Nc1cccc(NC(=O)c2ccco2)c1)c1ccc2c(c1)OCO2
  Potency: inconclusive: 20 µM [activator, single point]

Reformatted field by field: part of the list above.
CC(=O)OCC(=O)N1N=C(c2ccc3ccccc3c2)CC1c1ccccc1 (centres undefined)
  Potency: inconclusive: 12.6 µM [inhibitor, single point]
COC(=O)C1=C(COc2ccccc2)NC(=O)NC1c1ccc(Br)cc1 (centres undefined)
  Potency: inconclusive: 25.1 µM [activator, single point]
